Reference: PubChem BioAssay AID1671190 (National Center for Advancing Translational Sciences (NCATS), 2021)
Screen size: about 580,000 compounds; about 6,100 (1.1%) were called active. The inconclusive results got no clear call from the source; some entries with a clear call stand among them for comparison. Calls follow the shape of the dose curve; as a rule, active = well fitted inhibition curve with a large enough effect; inconclusive = small, poorly fitted or top-dose-only effect, or another doubt; inactive = no such curve, though single readings can be large or run the other way. Potencies beside an inconclusive call are fits to weak or partial responses and may not hold up.

Chains of the proteins cited; added tags and fusions are not shown. Lines headed by an entry give the natural chain unless they say otherwise; changes in a name come on top.
UniProt P18054: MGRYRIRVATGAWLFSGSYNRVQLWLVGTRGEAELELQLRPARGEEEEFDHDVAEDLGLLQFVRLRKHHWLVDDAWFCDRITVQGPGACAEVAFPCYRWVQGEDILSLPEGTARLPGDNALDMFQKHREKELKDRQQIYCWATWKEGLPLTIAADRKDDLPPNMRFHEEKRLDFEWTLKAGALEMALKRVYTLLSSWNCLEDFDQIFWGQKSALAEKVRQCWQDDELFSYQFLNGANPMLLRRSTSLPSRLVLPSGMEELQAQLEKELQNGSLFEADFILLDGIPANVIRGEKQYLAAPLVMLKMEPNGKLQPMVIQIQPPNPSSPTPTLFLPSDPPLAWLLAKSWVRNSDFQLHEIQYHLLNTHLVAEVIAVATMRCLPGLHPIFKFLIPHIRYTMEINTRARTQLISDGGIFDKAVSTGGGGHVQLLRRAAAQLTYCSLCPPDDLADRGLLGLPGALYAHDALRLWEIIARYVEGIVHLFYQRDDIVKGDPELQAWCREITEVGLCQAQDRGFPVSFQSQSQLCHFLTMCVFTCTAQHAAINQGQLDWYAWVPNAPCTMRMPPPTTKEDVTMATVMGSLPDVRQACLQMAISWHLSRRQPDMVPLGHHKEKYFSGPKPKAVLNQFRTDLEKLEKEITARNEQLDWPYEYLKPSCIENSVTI

Target: Polyunsaturated fatty acid lipoxygenase ALOX12 (Homo sapiens) (UniProt P18054)
Experiment: Primary qHTS assay for inhibitors of human arachidonate 12S-lipoxygenase (ALOX12): Round 2
Conditions: purified 12hLO, xylenol orange hydroperoxide absorbance; activity change, negative = inhibition: at 108 µM (top of the series) unless noted
Procedure, shortened: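 Purified human 12hLO (150 nM final) in 25 mM Hepes, 0.01% Triton X-100, pH 7.0 was preincubated 15 min at room temperature with compound. Then 40 uM arachidonic acid was added, 30 min. Hydroperoxide was read by Fe-XO absorbance ratio 573/405 nm.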
% is scaled to controls: 0 for no effect and ±100 for the full control effect; potency is read from the fitted curve at half-maximal effect.

SMILES	activity change, negative = inhibition	Potency
Cn1c(CN2CCCC2)nc2cc(NS(=O)(=O)c3ccccc3)ccc21	inactive: 21.1%	
O=C(NCCO)c1c(O)c2cccc3c2n(c1=O)CC3		inconclusive: 14.1 µM [inhibitor, partial curve, poor fit]
COCCNC(=S)N/N=C(\C)c1ccc2cc(OC)ccc2c1		active: 35.5 µM
Cc1nn(C)cc1CN(C)CC1(O)CCCN(Cc2ccc(F)cc2)C1=O (stereo not drawn)		inconclusive: 100 µM [inhibitor, partial curve, poor fit]
CCOc1ccc(C(C)=O)cc1COc1ccc(-n2cnnn2)cc1	inactive: 1.14%	
CC(=O)CSc1ncnc2nc[nH]c12		inconclusive: 35.5 µM [inhibitor, partial curve, poor fit]
COc1ccc(NC(=O)CN2C(=O)NC(c3ccc(Cl)cc3)C3=C2COC3=O)c(OC)c1 (stereo not drawn)		inconclusive: 25.1 µM [inhibitor, full curve, poor fit]
COc1ccc2cnn(CC(=O)NC3CCCc4c3[nH]c3ccccc43)c(=O)c2c1OC (stereo not drawn)		active: 39.8 µM
COc1cccc(/C=C/C(=O)c2ccccc2C)c1OC	inactive: 9.44%	
CCN1CCN(S(=O)(=O)c2ccc(C(=O)Nc3sc4c(c3C(N)=O)CCN(CC)C4)cc2)CC1	inactive: 40.6%	
COc1ccc(Cl)cc1C(=O)OCc1cccc(COC(=O)c2cc(Cl)ccc2OC)c1	inactive: -2.94%	
CN(C)S(=O)(=O)c1cccc(NC(=O)COc2ccc(Cl)cc2)c1		inconclusive: 50.1 µM [inhibitor, partial curve, poor fit]
CCOC(=O)c1cc2c(ccn2-c2ccc(F)cc2)n1CC(=O)N(CC)CC		inconclusive: 7.94 µM [inhibitor, partial curve, poor fit]
CC1(C)CC(=O)C=C(NC2CCCCCCC2)C1	inactive: 3.95%	
Cc1cc(C)cc(NC(=O)C(OC(=O)c2ccc(O)cc2)c2ccccc2)c1 (stereo not drawn)		inconclusive: 50.1 µM [inhibitor, partial curve, poor fit]
CCc1ccc(OCC(=O)NC(=S)Nc2ccc(S(=O)(=O)NC3CCCCC3)cc2)cc1		inconclusive: 50.1 µM [inhibitor, partial curve]
COCCCNC(=O)c1cnc2sc(N3CCCCCC3)nn2c1=O	inconclusive: -32.4% [inhibitor]	
CCCNC(=O)[C@@H]1CCCN1[C@@H](C(=O)NC)c1ccc(OC)cc1		active: 10 µM
O=C(NC1CC1)C1(c2ccc(Br)cc2)CCCC1		inconclusive: 31.6 µM [inhibitor, partial curve, poor fit]
Cc1ccc2c(c1)-c1c(cnn1CC(=O)N1CCN(c3ccccc3F)CC1)CO2		inactive
COc1cccc(C(=O)Nc2cc3c4c(c2)CC(=O)N4CCC3)c1		inconclusive: 50.1 µM [inhibitor, partial curve, poor fit]
CCN(CC)CCCC(C)NC(=O)Nc1ccc(Cl)cc1 (stereo not drawn)		inconclusive: 31.6 µM [inhibitor, partial curve, poor fit]
COc1cccc(NC(=O)CCc2nc3c(C)nn(-c4ccc(C)cc4)c3n(C)c2=O)c1		inconclusive: 50.1 µM [inhibitor, partial curve, poor fit]

SMILES	activity change, negative = inhibition	Potency
O=C(OCC12CC3CC(CC(C3)C1)C2)c1ccc(NCc2cc(O)ccc2O)cc1		active: 15.8 µM
CCCCN(CCCNC(=O)CN1N=C(c2ccc(C)cc2)CCC1=O)c1ccccc1		inconclusive: 50.1 µM [inhibitor, partial curve, poor fit]
Cc1csc(NC(=S)Nc2cccc(Cl)c2)n1		active: 8.91 µM
Cc1cc(NC(=O)c2ccc3c(c2)N(C)C2CCCCCN2C3=O)ccc1Br (stereo not drawn)	inactive: 9.12%	
COc1ccc(C(=O)Nn2cnnc2)c(OC)c1		inconclusive: 100 µM [inhibitor, partial curve, poor fit]
O=C(NCC1CC1)c1csc(COCCO)n1		inconclusive: 126 µM [inhibitor, partial curve, poor fit]
COc1ccc(N(C(=O)c2cnccn2)C(C(=O)NCc2ccccc2)c2ccc(O)cc2)cc1 (stereo not drawn)		inconclusive: 56.2 µM [inhibitor, partial curve, poor fit]
Oc1ccc(/C(Cc2ccccn2)=N\Nc2ccccc2)c(O)c1		inconclusive: 44.7 µM [inhibitor, partial curve, poor fit]
O=C1C=C(O)CC(c2ccc(Cl)cc2)C1 (stereo not drawn)	inactive: -0.72%	
CC(C)(C)C(=O)/C(=C/c1ccncc1)n1cncn1	inactive: -0.511%	
CN(CC(=O)N1CCC(CCOc2ccc(F)cc2)C1)S(=O)(=O)c1cccs1 (stereo not drawn)		inconclusive: 89.1 µM [inhibitor, partial curve, poor fit]
Cc1nccc(-c2cccc(NC(=O)c3cccc[n+]3[O-])c2)n1	inactive: -24.3%	
O=C(O)c1c2c(nc3ccc(S(=O)(=O)N4CCC(C(=O)NCc5ccccc5Cl)CC4)cc13)CCCC2		inconclusive: 31.6 µM [inhibitor, partial curve, poor fit]
O=C(CCn1ccc(=O)[nH]c1=O)N[C@@H]1COCC[C@@H]1OCc1ccccc1	inactive: 19.4%	
Cc1oc2ncn(CC(C)C)c(=O)c2c1C(=O)NCCc1ccccc1	inactive: -25.2%	
S=C(Nc1ccc(Cl)cc1)NC1CC2CCC(C1)N2Cc1ccccc1 (stereo not drawn)		inconclusive: 50.1 µM [inhibitor, partial curve, poor fit]
CCC(=O)OCCNc1nc(-c2ccccc2)nc2ccccc12		inconclusive: 100 µM [inhibitor, single point]
CC(=O)N1Cc2ccccc2CC2(CCCN(CC3CCNC3)C2)C1 (stereo not drawn)		active: 8.91 µM
CN(C)c1cccc(Nc2cc3c(cn2)NCCN(Cc2ccccc2)C3)c1		inconclusive: 35.5 µM [inhibitor, partial curve, poor fit]
CCCN1CCc2c(sc(NC(=O)c3ccc(S(=O)(=O)N(C)c4ccccc4)cc3)c2C(=O)NC)C1		inconclusive: 31.6 µM [inhibitor, single point]
Cc1ccc(-c2nc(CNC(=O)Nc3ccccc3)c(C)o2)cc1		inconclusive: 31.6 µM [inhibitor, partial curve, poor fit]
COc1ccc(N2CCN(C(=O)CCc3ccc(S(=O)(=O)NC(C)(C)C)cc3)CC2)cc1	inactive: 0%	
NC(=O)Nc1ccc(Oc2ncc(C(F)(F)F)cc2Cl)cc1	inactive: 2.35%	

2 entries from above, as labelled records:
CC(=O)N1Cc2ccccc2CC2(CCCN(CC3CCNC3)C2)C1 (stereo not drawn)
  Potency: active: 8.91 µM
CN(C)c1cccc(Nc2cc3c(cn2)NCCN(Cc2ccccc2)C3)c1
  Potency: inconclusive: 35.5 µM [inhibitor, partial curve, poor fit]

Continuation:

SMILES	activity change, negative = inhibition	Potency
CN1CCN(C(=O)c2ccc(CNC(=O)c3cc4cc(F)ccc4[nH]3)cc2)CC1	inactive: -22.4%	
Cn1c(=O)c2cc(NC(=O)CCc3cccnc3)ccc2n1Cc1cccc(C(F)(F)F)c1	inactive: 6.21%	
O=C1Nc2ccccc2C1=NN=Cc1ccco1		inconclusive: 89.1 µM [inhibitor, single point]
CN(C)CCCC(=O)N1Cc2ccccc2CC2(CCCCN2Cc2ccccc2)C1 (stereo not drawn)		inconclusive: 70.8 µM [inhibitor, single point]
COc1cc(CNCc2ccccn2)ccc1OCc1ccc(Cl)cc1Cl		inconclusive: 56.2 µM [inhibitor, partial curve, poor fit]
O=C(c1ccc(OC2CCN(Cc3ccccn3)CC2)cc1)N1CCC[C@H]1CO		inconclusive: 3.55 µM [inhibitor, single point]
Cc1cc(C)n2c(Nc3ccc(C(C)C)cc3)c(-c3ccsc3)nc2n1		inconclusive: 100 µM [inhibitor, partial curve, poor fit]
CSc1ccc(CN2CCC(CO)(CN3CCCC3)CC2)cc1	inactive: 48.9%	
c1ccc(-c2noc(-c3cccnc3NCc3ccco3)n2)cc1	inactive: 0%	
CC(NC(=O)CN(c1cccc(C(F)(F)F)c1)S(C)(=O)=O)c1ccccc1 (stereo not drawn)		inconclusive: 50.1 µM [inhibitor, partial curve, poor fit]
Cc1cccc(C(=O)/C=C\N(C)C)c1		inconclusive: 126 µM [inhibitor, partial curve, poor fit]
COc1ccc(CNC(=O)C[C@H]2C[C@H](C(=O)N3CCOCC3)[C@@]3(C)c4[nH]c5cc(-c6ccco6)ccc5c4CCN3C2=O)cc1OC		inconclusive: 100 µM [inhibitor, single point]
COc1cccc(CNc2nc3cc(-c4ccc(C(=O)N5CCN(C)CC5)cc4)sc3c(=O)n2C)c1		inconclusive: 63.1 µM [inhibitor, partial curve, poor fit]
Cc1ccc(NC(=O)Cn2c(-c3cccc(Cl)c3)nc(C)c(CCO)c2=O)cc1		inconclusive: 89.1 µM [inhibitor, partial curve, poor fit]
CCc1ccc(NC(=O)CSc2nc3ccccc3c(=O)n2CCCC(=O)N2CCCC2)cc1	inactive: 2.27%	
Cc1c(Cl)cccc1NC(=O)c1noc2c1CC(C)CC2 (stereo not drawn)		inconclusive: 0.178 µM [inhibitor, full curve, poor fit]
Cc1ccc(C)c(CSc2nnc(C(N)Cc3ccccc3)o2)c1 (stereo not drawn)		inconclusive: 44.7 µM [inhibitor, partial curve, poor fit]
Cc1ccc(OCC(=O)NC(=S)Nc2cccc(NC(=O)c3ccc(Cl)cc3Cl)c2)cc1	inactive: 9.63%	
Cn1c(NC2CCCCC2)cc(=O)n(C)c1=O		inconclusive: 44.7 µM [inhibitor, single point]
O=C(Nc1cccc(C(F)(F)F)c1)C1=CCN(Cc2ccc(F)cc2)CC1		inconclusive: 44.7 µM [inhibitor, single point]
CC(C)(C)c1ccc(C(=O)NC(=S)NCc2cccnc2)cc1		inconclusive: 44.7 µM [inhibitor, partial curve]
CCN(CC)C(=O)CSc1nnc(-c2c[nH]c3ccccc23)o1		inconclusive: 158 µM [inhibitor, single point]
